Data published in patent US20250163117A1 (CURE GENETICS, published 2025).
These are yes or no findings as the source states them, for the method shown. Some results given as binding are weak or reduced against the parent protein; the word gives no strength.

Experiments:
[1] = biological target: T1, Human IL-2Rβ&IL-2Rα&IL-2Rγ protein (human, UniProt P14784 27-239; P01589 22-217; P31785 23-262, limits assumed); experiment: SPR (Biacore)
T1 construct: Trimeric receptor protein used as SPR ligand; also called IL-2Rαβγ; Human IL-2RB&IL-2RA&IL-2RG
T1 sequence (looked up) 1: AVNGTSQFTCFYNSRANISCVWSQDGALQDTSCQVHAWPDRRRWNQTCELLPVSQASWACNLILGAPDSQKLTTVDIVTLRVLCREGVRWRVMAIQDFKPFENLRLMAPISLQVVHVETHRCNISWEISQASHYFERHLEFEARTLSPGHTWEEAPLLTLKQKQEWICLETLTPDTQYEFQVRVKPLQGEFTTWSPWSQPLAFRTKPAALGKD
T1 sequence (looked up) 2: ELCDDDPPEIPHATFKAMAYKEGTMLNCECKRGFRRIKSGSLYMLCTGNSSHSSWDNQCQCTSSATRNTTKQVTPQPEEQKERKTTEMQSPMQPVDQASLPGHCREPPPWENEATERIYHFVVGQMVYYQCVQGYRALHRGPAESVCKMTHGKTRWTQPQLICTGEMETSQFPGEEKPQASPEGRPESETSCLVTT
T1 sequence (looked up) 3: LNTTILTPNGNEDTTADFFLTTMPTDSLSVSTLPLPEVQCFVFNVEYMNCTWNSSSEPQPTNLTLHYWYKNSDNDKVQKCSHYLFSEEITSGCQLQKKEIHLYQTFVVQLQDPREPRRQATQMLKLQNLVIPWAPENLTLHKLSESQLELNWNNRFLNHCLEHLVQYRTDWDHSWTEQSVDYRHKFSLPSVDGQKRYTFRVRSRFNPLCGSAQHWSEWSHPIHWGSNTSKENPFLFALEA

[2] = biological target: T1, Human IL-2Rβ&IL-2Rα&IL-2Rγ protein; experiment: SPR (Biacore, receptor on CM5 chip, IL-2 as analyte)

binding [1]: binds
binding [2]: binds
B1: CP-trIL-2 012 (ligand)
chain: PTSSSTKKTQLQLEHLLLDLQMILNGINNYKNPLRPRDLISNINVIVLELKGSETTELKHLQSLEEELKDLEEVLNLAQSKNFHTIVEFLNRWITFSQSIISTLT
notes: H1-H3-H2-H4; loops 1 and 2 removed; de-Ala1, C58S, C125S, P65D
